Measured values: the supplement of paper PMC10849652
The list shows a part of the results.

By UniProt entry, the sequences of proteins in these tests, tags left out. Where a name states a change or a piece, a line headed by the entry shows the natural chain unless it says otherwise.
UniProt Q9UN81: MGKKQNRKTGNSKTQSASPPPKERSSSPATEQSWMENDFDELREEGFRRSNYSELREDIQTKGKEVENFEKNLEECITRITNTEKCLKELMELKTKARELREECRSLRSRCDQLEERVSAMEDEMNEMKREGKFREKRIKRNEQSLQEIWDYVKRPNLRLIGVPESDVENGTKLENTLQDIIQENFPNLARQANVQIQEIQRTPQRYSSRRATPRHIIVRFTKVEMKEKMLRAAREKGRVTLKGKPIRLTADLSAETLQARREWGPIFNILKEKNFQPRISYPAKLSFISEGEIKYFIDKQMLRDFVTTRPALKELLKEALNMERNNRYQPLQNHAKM
UniProt Q86U70: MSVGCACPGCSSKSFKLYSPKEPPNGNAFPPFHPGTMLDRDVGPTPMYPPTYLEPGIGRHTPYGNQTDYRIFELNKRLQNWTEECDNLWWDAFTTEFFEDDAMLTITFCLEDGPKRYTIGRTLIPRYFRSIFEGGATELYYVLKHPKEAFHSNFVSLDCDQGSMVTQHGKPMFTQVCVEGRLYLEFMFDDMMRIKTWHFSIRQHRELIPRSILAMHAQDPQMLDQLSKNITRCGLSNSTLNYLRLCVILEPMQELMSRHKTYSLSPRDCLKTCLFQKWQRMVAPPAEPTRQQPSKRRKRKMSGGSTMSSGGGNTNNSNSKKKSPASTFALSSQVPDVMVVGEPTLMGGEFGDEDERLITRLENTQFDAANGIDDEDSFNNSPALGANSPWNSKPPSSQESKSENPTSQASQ
UniProt P13473: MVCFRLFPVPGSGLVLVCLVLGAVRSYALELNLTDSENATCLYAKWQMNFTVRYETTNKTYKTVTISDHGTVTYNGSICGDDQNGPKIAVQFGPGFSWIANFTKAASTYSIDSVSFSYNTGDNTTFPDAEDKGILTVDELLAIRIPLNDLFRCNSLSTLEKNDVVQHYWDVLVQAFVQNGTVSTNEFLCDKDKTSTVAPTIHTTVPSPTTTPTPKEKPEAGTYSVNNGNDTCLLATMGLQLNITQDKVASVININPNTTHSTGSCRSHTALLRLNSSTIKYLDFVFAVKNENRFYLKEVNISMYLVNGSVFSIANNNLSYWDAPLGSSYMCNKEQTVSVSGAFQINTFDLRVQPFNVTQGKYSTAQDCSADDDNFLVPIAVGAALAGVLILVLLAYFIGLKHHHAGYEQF
UniProt Q9BU23: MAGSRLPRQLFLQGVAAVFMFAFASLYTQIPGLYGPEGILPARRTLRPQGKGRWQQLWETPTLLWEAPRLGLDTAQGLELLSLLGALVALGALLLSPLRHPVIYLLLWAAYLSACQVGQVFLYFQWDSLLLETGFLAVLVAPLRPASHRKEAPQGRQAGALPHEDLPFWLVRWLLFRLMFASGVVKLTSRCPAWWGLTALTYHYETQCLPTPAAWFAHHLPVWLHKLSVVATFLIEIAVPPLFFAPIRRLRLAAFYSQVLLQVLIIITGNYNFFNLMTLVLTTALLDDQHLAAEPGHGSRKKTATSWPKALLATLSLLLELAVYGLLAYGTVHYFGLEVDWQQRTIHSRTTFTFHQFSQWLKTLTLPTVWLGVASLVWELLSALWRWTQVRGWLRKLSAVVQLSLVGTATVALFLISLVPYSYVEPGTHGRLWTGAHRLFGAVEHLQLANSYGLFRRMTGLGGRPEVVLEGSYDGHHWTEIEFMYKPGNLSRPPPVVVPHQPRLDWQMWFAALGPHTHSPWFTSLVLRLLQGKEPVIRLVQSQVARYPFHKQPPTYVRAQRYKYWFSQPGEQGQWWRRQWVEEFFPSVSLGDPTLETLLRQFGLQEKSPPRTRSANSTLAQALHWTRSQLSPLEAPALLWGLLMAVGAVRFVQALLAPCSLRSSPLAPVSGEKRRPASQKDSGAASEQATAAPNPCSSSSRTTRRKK
UniProt Q9BRT6: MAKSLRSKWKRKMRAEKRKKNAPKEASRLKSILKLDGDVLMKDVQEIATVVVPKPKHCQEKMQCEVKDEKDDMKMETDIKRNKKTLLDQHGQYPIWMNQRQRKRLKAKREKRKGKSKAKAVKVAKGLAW
UniProt Q86WA8: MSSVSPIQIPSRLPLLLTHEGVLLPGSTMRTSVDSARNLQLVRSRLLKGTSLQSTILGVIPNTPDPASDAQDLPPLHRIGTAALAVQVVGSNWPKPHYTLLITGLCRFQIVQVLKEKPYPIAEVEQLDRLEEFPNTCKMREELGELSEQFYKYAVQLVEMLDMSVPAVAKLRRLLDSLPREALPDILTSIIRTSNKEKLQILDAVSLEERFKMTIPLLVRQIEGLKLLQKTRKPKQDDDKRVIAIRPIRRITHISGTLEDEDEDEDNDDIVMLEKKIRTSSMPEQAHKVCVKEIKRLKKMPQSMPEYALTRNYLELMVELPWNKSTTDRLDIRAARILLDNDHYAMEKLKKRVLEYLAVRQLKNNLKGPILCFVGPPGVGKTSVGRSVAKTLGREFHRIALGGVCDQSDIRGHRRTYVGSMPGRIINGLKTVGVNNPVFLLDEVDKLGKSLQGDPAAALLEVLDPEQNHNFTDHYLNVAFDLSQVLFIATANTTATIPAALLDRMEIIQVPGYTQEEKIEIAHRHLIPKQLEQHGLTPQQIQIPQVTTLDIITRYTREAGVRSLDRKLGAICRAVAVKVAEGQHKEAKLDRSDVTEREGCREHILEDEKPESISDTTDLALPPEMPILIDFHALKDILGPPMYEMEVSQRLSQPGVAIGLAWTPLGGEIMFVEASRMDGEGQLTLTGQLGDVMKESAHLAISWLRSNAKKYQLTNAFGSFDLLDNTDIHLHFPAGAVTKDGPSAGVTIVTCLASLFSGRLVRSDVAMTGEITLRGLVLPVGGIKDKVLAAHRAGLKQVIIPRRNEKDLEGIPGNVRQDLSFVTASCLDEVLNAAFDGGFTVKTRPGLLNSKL
UniProt Q5T3J3: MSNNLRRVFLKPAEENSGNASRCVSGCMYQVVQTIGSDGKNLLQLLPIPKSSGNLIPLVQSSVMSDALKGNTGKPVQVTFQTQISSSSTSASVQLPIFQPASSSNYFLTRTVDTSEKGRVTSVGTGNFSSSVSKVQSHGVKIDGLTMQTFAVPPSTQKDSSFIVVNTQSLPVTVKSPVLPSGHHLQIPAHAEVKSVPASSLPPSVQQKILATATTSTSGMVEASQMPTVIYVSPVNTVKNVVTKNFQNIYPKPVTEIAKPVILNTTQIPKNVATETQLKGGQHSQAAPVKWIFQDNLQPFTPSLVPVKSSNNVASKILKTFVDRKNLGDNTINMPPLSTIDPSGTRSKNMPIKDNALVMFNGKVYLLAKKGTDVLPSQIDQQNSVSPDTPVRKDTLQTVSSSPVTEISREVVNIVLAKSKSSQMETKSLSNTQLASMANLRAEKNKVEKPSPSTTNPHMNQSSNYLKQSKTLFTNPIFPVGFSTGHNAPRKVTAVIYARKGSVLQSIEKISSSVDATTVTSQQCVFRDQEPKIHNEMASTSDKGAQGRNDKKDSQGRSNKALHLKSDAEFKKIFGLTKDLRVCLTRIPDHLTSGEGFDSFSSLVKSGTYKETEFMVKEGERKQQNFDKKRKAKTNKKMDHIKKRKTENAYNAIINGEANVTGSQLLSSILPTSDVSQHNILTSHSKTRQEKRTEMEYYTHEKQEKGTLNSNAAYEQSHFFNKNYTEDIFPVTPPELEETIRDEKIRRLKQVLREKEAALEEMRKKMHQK
UniProt Q92615, whole entry, looked up: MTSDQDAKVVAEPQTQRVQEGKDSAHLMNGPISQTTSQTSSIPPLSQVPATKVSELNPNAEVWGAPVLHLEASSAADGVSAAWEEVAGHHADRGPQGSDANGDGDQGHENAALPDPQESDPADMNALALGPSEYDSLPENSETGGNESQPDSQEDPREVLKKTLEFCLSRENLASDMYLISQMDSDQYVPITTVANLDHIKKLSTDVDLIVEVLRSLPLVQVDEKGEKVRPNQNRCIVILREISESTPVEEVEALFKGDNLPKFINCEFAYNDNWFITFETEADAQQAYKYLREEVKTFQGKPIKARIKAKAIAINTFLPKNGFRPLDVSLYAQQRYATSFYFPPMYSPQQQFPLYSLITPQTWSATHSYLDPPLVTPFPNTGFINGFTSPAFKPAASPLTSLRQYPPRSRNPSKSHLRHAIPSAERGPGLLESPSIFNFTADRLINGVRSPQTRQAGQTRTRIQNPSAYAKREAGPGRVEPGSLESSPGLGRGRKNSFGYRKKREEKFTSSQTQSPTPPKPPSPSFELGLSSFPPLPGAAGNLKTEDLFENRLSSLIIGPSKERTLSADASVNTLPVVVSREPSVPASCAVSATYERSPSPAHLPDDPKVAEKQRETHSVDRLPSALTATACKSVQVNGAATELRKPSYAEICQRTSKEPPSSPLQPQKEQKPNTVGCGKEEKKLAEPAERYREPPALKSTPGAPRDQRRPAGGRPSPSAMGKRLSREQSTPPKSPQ
UniProt Q9Y2Q5, whole entry, looked up: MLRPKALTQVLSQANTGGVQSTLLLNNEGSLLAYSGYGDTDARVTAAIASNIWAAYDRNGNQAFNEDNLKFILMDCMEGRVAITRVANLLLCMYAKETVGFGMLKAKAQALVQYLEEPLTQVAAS
UniProt Q8N1G4: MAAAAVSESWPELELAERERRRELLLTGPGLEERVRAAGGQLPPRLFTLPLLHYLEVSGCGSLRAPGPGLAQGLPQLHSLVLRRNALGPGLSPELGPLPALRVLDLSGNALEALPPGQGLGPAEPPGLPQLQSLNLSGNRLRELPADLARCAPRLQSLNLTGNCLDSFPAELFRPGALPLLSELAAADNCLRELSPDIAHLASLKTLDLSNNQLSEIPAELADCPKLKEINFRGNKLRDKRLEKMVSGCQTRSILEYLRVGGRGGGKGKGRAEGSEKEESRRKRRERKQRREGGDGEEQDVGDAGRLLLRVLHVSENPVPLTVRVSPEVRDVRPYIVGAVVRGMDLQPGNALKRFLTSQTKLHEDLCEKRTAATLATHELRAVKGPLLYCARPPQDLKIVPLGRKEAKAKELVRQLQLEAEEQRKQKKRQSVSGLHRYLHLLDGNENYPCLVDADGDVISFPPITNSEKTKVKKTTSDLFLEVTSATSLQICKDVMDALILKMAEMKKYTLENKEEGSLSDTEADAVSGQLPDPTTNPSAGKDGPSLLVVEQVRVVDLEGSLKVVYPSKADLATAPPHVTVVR
UniProt Q9H9A6: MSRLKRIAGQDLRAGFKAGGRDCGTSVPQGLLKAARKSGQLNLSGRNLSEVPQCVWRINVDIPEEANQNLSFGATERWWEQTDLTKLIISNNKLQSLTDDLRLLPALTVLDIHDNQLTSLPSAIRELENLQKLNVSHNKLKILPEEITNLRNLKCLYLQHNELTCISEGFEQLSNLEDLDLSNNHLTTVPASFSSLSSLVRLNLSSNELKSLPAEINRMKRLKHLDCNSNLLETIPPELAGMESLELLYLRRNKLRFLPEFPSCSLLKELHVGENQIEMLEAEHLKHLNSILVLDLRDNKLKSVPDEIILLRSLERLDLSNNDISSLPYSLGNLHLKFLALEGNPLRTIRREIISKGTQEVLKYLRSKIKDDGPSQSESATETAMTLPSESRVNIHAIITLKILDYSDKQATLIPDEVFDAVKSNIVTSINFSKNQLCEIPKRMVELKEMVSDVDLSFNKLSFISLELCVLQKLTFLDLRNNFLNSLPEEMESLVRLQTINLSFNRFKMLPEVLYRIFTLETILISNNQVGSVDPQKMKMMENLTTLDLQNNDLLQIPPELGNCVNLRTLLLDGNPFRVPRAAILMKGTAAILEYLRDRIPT
UniProt Q16719: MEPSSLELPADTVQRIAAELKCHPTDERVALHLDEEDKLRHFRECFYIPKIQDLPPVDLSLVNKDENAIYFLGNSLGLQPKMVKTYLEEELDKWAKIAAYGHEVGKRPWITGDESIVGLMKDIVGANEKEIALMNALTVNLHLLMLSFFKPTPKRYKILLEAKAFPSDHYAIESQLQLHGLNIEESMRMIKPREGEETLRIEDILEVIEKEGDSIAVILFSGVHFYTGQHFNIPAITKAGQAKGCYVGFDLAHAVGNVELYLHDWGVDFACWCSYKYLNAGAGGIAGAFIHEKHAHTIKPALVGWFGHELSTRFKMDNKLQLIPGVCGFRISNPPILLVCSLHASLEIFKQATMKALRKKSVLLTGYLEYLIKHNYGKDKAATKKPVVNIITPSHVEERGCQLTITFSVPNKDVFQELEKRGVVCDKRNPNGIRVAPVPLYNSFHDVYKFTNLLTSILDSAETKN
UniProt Q16773: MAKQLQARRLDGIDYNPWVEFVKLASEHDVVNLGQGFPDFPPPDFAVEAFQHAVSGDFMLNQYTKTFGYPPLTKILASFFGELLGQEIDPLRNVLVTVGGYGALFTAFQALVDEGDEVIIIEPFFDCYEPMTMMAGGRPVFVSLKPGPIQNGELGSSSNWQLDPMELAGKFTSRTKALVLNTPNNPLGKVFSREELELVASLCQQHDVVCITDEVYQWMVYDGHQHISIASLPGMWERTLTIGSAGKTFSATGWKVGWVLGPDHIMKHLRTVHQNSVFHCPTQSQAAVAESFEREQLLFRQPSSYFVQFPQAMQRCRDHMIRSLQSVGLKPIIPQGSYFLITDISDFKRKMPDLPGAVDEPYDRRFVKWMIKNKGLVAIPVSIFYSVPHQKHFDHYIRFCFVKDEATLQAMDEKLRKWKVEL

Key:
Assay in all cases: log2 fold change, soluble protein after heating vs DMSO (PISA); higher = thermal stabilisation; K562 cells, 10 uM, 30 min; active = over 0.2 and 3.5 SD of the protein, either way, in both replicates (recomputed)
[1] = compound: C1=CC=C(C=C1)[C@H](COC2=CC3=C(C=C2)NC(=O)N3)NC(=O)C4=CC=CN(C4=O)CC5=CC(=C(C=C5)F)F
Outline: (§1)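 For each measurement, 10 μM compound was applied for 30 min to K562 cells at 2×10^6 cells/mL. Aliquots were heated for 3 min across 48°C-58°C, pooled, and extracted in PBS with 0.5% NP-40 at 4°C; the supernatant after 21,000xg for 90 min was soluble protein. This was quantified by TMTpro 16plex LC-MS/MS with channel sums equalised, and thermal stability was reported relative to control samples from duplicates, on a log2 fold-change scale.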

[2] = compound: CC1=C(SC2=C1C(=N[C@H](C3=NN=C(N32)C)CC(=O)N)C4=CC=C(C=C4)Cl)C
Outline: as §1

[3] = compound: CC1=C2C(=CC=C1)N=C(N(C2=O)C3=CC=CC=C3C)CN4C=NC5=C(N=CN=C54)N
Outline: as §1

[4] = compound: Cc1sc2c(c1C)C(c1ccc(Cl)cc1)=N[C@@H](CC(=O)OC(C)(C)C)c1nnc(C)n1-2
Outline: as §1

[5] = compound: c1ccc([C@@H]2C[C@H]2NC2CCNCC2)cc1
Outline: as §1

Measured: log2 fold change

L1RE1 (UniProt Q9UN81)
inactive: [1] 0.059 | [2] 0.045 | [3] -0.204 | [4] 0.097 | [5] -0.01

LDB1 (UniProt Q86U70)
inactive: [1] 0.009 | [2] 0.011 | [3] 0.026 | [4] 0.013 | [5] 0.014

LDAH isoform 2 (UniProt Q9H6V9)
inactive: [1] -0.125 | [2] 0.019 | [3] 0.086 | [4] 0.174 | [5] -0.059

LAMP2 (UniProt P13473)
inactive: [1] 0.022 | [2] -0.006 | [3] -0.041 | [4] -0.078 | [5] 0.074

LMF2 (UniProt Q9BU23)
inactive: [1] -0.001 | [2] -0.013 | [3] 0.097 | [4] -0.012 | [5] -0.053

LLPH (UniProt Q9BRT6)
inactive: [1] 0.094 | [2] -0.399 | [3] -0.586 | [4] 0.31 | [5] -0.001

LAMTOR3 (UniProt Q9UHA4)
inactive: [1] 0.068 | [2] 0.084 | [3] 0.074 | [4] -0.062 | [5] -0.063

LNPEP (UniProt Q9UIQ6)
inactive: [1] 0.066 | [2] 0.061 | [3] 0.001 | [4] -0.016 | [5] 0.046

KTN1 (UniProt Q86UP2)
inactive: [1] 0.005 | [2] -0.012 | [3] 0.019 | [4] 0.036 | [5] 0.001

LONP2 (UniProt Q86WA8)
inactive: [1] -0.036 | [2] 0.009 | [3] 0.02 | [4] 0.009 | [5] -0.147

LIMS1 isoform 3 (UniProt P48059)
inactive: [1] 0.007 | [2] -0.007 | [3] 0.006 | [4] -0.008 | [5] 0.046

LRFN1 (UniProt Q9P244)
inactive: [1] -0.069 | [2] 0.183 | [3] 0.042 | [4] -0.02 | [5] -0.411

LRIF1 (UniProt Q5T3J3)
inactive: [1] 0.05 | [2] 0.029 | [3] 0.005 | [4] 0.005 | [5] 0.028

LIN28B (UniProt Q6ZN17)
inactive: [1] 0.02 | [2] -0.095 | [3] -0.17 | [4] 0.096 | [5] -0.003

LARP4B (UniProt Q92615)
inactive: [1] -0.003 | [2] -0.013 | [3] 0 | [4] 0.081 | [5] -0.014

LAMTOR5 (UniProt O43504)
inactive: [1] 0.004 | [2] -0.124 | [3] -0.226 | [4] -0.1 | [5] 0.025

LAMTOR2 (UniProt Q9Y2Q5)
inactive: [1] 0.037 | [2] -0.011 | [3] -0.037 | [4] -0.098 | [5] 0.072

LRRC47 (UniProt Q8N1G4)
inactive: [1] -0.016 | [2] 0.014 | [3] 0.004 | [4] -0.024 | [5] -0.051

LANCL1 (UniProt O43813)
inactive: [1] 0.025 | [2] 0.009 | [3] 0.006 | [4] -0.024 | [5] 0.018

LRRC40 (UniProt Q9H9A6)
inactive: [1] -0.122 | [2] 0.056 | [3] 0.066 | [4] 0.019 | [5] 0.038

KYNU (UniProt Q16719)
inactive: [1] -0.016 | [2] -0.016 | [3] 0.04 | [4] -0.014 | [5] 0.026

LAMP2 isoform 2 (UniProt P13473)
inactive: [1] 0.051 | [2] -0.015 | [3] 0.04 | [4] 0.052 | [5] 0.007

KYAT1 (UniProt Q16773)
inactive: [1] 0.008 | [2] 0.044 | [3] 0.015 | [4] 0.011 | [5] -0.009

Two consecutive entries from above:
LRRC40 (UniProt Q9H9A6)
inactive: [1] -0.122 | [2] 0.056 | [3] 0.066 | [4] 0.019 | [5] 0.038

KYNU (UniProt Q16719)
inactive: [1] -0.016 | [2] -0.016 | [3] 0.04 | [4] -0.014 | [5] 0.026

Additional entries follow:

LEMD2 (UniProt Q8NC56)
inactive: [1] -0.031 | [2] 0.136 | [3] 0.114 | [4] -0.017 | [5] 0.005
